For at least one entry, the source does not settle the construct or the ends of the probe. Tags and fusion partners may be left off the protein sequences shown.
Molecular target: T1, Zfp90 (mouse) (UniProt Q61967)
T1 sequence (looked up, limits assumed): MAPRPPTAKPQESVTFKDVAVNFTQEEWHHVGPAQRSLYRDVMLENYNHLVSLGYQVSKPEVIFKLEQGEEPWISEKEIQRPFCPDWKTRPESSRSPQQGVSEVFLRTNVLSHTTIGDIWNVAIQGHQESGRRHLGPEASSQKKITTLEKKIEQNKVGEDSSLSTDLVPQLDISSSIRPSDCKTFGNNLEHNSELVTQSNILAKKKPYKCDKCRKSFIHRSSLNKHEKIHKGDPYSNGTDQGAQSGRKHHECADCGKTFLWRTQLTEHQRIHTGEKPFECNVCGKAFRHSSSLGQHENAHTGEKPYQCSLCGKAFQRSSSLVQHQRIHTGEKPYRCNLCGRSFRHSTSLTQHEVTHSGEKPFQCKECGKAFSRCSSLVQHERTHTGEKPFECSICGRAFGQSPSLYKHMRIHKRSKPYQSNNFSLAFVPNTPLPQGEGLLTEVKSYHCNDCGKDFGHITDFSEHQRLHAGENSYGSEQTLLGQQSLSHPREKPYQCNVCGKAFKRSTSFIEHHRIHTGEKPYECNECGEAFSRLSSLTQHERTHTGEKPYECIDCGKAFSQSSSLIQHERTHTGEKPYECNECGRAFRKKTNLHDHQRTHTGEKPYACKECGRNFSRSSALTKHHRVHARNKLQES
Test: EMSA
Settings: Light Shift Chemiluminescent EMSA kit (named RNA EMSA kit), 20 min at RT; 4% polyacrylamide gel in 0.5x TBE; binding buffer, salt and pH not stated; recombinant protein; label: biotin

TCTTCTTCCTGCCGACAAGCGAGGGGGTGTGGATCCCGGGAGCTTCCCAGCCCCTCTCT (double strand) [Hoxa9 promoter EMSA probe]
binding result: binds

Reference: paper PMC5992204
